Reference: the supplement of paper PMC3334620
The full ranking holds about 33,000 sequences; the median of “E-score (-0.5 to 0.5)” is about -0.016, and the highest 2% start at about 0.3. The list shows a part of the results.

Biological target: T1, Yer184c (UniProt P39961)
T1 sequence: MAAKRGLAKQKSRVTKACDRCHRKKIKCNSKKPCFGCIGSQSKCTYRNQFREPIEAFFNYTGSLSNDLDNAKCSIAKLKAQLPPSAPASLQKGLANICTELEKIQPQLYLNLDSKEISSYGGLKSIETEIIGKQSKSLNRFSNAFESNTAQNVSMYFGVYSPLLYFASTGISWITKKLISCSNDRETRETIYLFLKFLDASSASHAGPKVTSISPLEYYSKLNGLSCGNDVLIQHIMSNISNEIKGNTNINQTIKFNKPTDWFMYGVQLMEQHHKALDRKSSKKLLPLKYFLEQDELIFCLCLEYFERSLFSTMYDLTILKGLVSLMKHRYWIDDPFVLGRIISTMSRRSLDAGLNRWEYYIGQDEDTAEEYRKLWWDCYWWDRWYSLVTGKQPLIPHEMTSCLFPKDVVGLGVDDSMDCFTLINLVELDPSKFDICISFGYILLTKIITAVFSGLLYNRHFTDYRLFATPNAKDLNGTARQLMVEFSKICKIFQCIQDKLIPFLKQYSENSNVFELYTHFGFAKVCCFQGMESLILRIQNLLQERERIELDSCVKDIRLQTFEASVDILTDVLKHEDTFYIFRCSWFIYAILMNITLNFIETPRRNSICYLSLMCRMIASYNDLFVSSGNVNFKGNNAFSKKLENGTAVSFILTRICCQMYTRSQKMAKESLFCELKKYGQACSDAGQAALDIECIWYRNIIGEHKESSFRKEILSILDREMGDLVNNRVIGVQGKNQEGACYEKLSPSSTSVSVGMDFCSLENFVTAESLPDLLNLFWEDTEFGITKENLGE
Assay: PBM E-score (8-mer binding enrichment) (E-score (-0.5 to 0.5)); higher = stronger / more preferred TF binding
Conditions: protein concentration: 100 nM; construct: GST-full length
How it was run: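 GST-tagged yeast TFs (full-length or DNA-binding domain) were made by PURExpress in vitro transcription/translation and applied at about 100-200 nM to universal all-10-mer Agilent arrays. The arrays were made double-stranded by primer extension, on fresh or once-stripped slides. Bound protein was detected with fluorescent anti-GST, and scans were normalised with masliner. Each ungapped eight-base word, pooled with its reverse complement, received an E-score (modified Wilcoxon-Mann-Whitney statistic) from the Universal PBM Analysis Suite.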

Sequence | PBM E-score
GCTGGCCA | -0.228
CCTACTTA | -0.184
ACAGACAA | 0.3
AGACGGGC | 0.0291
AAGTCTCT | -0.246
ATCTACAG | 0.078
CAATGTGA | 0.00375
GAGCTCAC | -0.108
AAATATCG | 0.194
CGCTGGGA | -0.0711
ACCAAGGT | -0.104
TCTGTAAA | 0.0225
ACCATCCT | -0.21
CACCCCAC | -0.236
AGTGTTGG | -0.0565
CGTTGTTA | 0.167
GAGGCGCC | -0.0777
CGAGTACG | 0.0148
CAACTACG | -0.118
TAGGAAGA | -0.146
CGTGACGC | -0.0217
CAAACCCC | -0.258
AATCAGCT | 0.0317
AACAGCGT | -0.0227
GTCTCCTA | -0.276

Sequence | PBM E-score
CTGAGGCC | 0.105
TGCTAGAA | 0.035
GAATAAGC | -0.0933
ACAAAGAA | 0.233
ATTAACTG | 0.0978
GATCGGAA | 0.279
GATAATGC | -0.0544
AGGCACAG | -0.163
ATCGGTAA | 0.264
AGCCTTGA | -0.064
CACGGGCG | 0.0256
CTAGGGTC | -0.286
CAGACACA | 0.0397
AGTTGCTA | 0.13
CGAATAAA | 0.19
CGAGGCAA | 0.2
TCACTCGA | 0.0168
GCACACGA | 0.00812
CGAGGGCA | -0.0888
ATCGCTAA | 0.0871
ACTTACCG | 0.291
CACCTGTA | -0.112
GGAGGCAC | -0.0737
ATACAAAG | 0.255
ACACAACG | 0.0548

Sequence | PBM E-score
AACTCGCC | 0.00678
ACTAGACC | 0.068
ATCGGTGC | 0.0934
AATCATTC | 0.185
GTGGGTCA | -0.249
AAGGCAGT | -0.0915
AAGGCATA | -0.0013
AAGCCGTA | 0.224
GAATAGAA | 0.174
AGACCGAA | 0.305
CTGCTAAG | -0.162
ACGCATGG | -0.182
GATATCGC | 0.0705
ACGTACGG | 0.0226
CCTCAGGA | -0.207
GCTCGCAA | -0.0232
AAAACCCA | 0.00491
ACTGGGTG | -0.256
CCTTCTGA | -0.175
ATCTAGAA | 0.154
ACTCTTTC | -0.0892
ACTCGATG | 0.0908
CGCAGGGA | -0.115
CAGGCCTG | 0.059
ATAAGCCC | -0.218

Pulled one by one from the list above:
Sequence | PBM E-score
ACTCGATG | 0.0908
CTGCTAAG | -0.162

(further entries)

Sequence | PBM E-score
GGATACGA | -0.068
ATGATAAA | 0.271
ATATACGG | 0.109
CCCCAAAA | -0.0885
CTTCGTAA | -0.0866
CCTAATAA | -0.02
CATCTAGG | -0.233
CTGCATTC | -0.0295
CAACACAC | -0.145
AAGTCGTC | -0.132
GACAGAGC | -0.128
AACTGGGA | -0.151
GCTACCCA | -0.203
AGGGAAAA | -0.0614
AAAAAGGG | -0.0149
AGAGGGTC | -0.245
AGTGTAGA | -0.165
TACCCCTA | -0.234
AGCCGTTC | 0.00576
TAGATCTA | 0.0733
ATATCAAA | 0.253
CGCAAGCG | -0.113
GGTCGGAC | 0.0075
AATGCAGT | -0.055
CCATGTGC | 0.0242

Sequence | PBM E-score
AGCCAGGG | -0.253
ACTGGATG | -0.0807
AGCCTCTC | -0.245
CCACACCG | -0.0036
CCTGCGAC | -0.226
CAGCAGCG | 0.0726
AGATGTTG | -0.0848
ATGAGGGA | -0.345
AGTTTAAA | 0.288
AGGTCGGG | -0.168
GCAGAAGC | -0.0141
GACGCTCA | -0.128
ACAGTTAT | -0.0291
AGCTAGCA | 0.0286
GACCCCAA | -0.24
CAGCGCAA | -0.162
AAGACATG | -0.262
GGCCCAAA | 0.11
ACTGGACC | -0.0788
GAATGTGC | -0.0995
ATCATGAA | 0.0581
CGTAAGCA | -0.252
CAGTCCAG | -0.223
AGATAAAC | 0.266
CGGGCCAG | -0.0224

Part of the list above, with tabs:
Sequence	PBM E-score
CAGCGCAA	-0.162
AAGACATG	-0.262
GGCCCAAA	0.11
ACTGGACC	-0.0788
GAATGTGC	-0.0995
ATCATGAA	0.0581
CGTAAGCA	-0.252

Continued:

Sequence | PBM E-score
CTTGGGGC | -0.207
AAGCGTAT | -0.222
AATTAACT | 0.0498
AAGCGCTA | 0.0496
CAGCCTAC | -0.00813
CGCGGGCA | 0.204
CCTCGCCG | -0.124
CTCTACGC | -0.0175
ACGGGCGC | 0.0508
CGCATTAG | -0.101
CTTACGAC | -0.104
AAAGTCAG | -0.09
CGTGCGAG | 0.0827
AAAACAAG | 0.0135
AGCACGTA | -0.211
GCCCCTAA | -0.26
CAGTGTGG | -0.35
CAAACTGC | -0.0352
ACGCGTAC | -0.0315
GATACGCC | 0.0847
ACAATGTA | -0.00057
TCACATAA | 0.0654
ATCGTTAC | -0.0776
GCCCGAGC | 0.142
ATAGGTTG | -0.156

Sequence | PBM E-score
ACCACGCT | -0.0936
GAGAGTAA | 0.194
CCCCCATA | -0.351
GCCCGTTA | -0.132
ATATGCTG | -0.21
CAAGATGC | 0.171
GCAATACA | 0.115
CAAGTATC | -0.053
CATCAGGC | -0.206
GCTTCGTA | -0.148
ACATCGCA | -0.156
ATAAAATC | 0.152
ACGAGGTG | -0.0563
AGTCACTA | -0.0653
AACTTGAA | 0.199
CTTTCTGA | 0.124
AAATCACC | 0.128
GCACAGGA | 0.0901
GTCAAAGA | 0.0783
AATCCGCT | -0.0489
CCCTGCGA | -0.156
CGTCGCAA | 0.00524
